Results taken from patent US20040006777A1, “Human lymphoid protein tyrosine phosphatases” (HSC Research and Development Limited Partnership, priority 1998, published 2004).
No constants are given. Whether binding was seen depends on the method and setting. Binding seen in cells or lysates may run through a third protein. Some results given as binding are weak or reduced against the parent protein; the word gives no strength.

What was measured:
[1] = biological target: proto-oncogene c-Cbl (116 kD phosphorylated protein of human thymocytes) (human) (UniProt P22681); experiment: co-immunoprecipitation from human thymocytes, anti-phosphotyrosine and anti-Cbl blots
[2] = biological target: proto-oncogene c-Cbl (116 kD phosphorylated protein of human thymocytes) (human) (UniProt P22681); experiment: co-immunoprecipitation from human thymocytes; confirmed in Jurkat cells (data not shown)
[3] = biological target: proto-oncogene c-Cbl (116 kD phosphorylated protein of human thymocytes) (human) (UniProt P22681); experiment: co-immunoprecipitation: western blot of Lyp immunoprecipitates from anti-CD3 stimulated human thymocytes; also seen in Jurkat (not shown)

Measured: binding

B1: Lyp1 (human lymphoid protein tyrosine phosphatase, 105 kD) (enzyme)
chain: MDQREILQKFLDEAQSKKITKEEFANEFLKLKRQSTKYKADKTYPTTVAENAKNIKKNRYKDILPYDYSRVELSLITSDEDSSYINANFIKGVYGPKAYIATQGPLSTTLLDFWRMIWEYSVLIIVMACMEYEMGKKKCERYWAEPGEMQLEFGPFSVSCEAEKRKSDYIIRTLKVKFNSETRTIYQFHYKNWPDHDVPSSIDPILELIWDVRCYQEDDSVPICIHCSAGCGRTGVICAIVDYTWMLLKDGIIPENFSVFSLIREMRTQRPSLVQTQEQYELVYNAVLELFKRQMDVIRDKHSGTESQAKHCIPEKNHTLQADSYSPNLPKSTTKAAKMMNQQRTKMEIKESSSFDFRTSEISAKEELVLHPAKSSTSFDFLELNYSFDKNADTTMKWQTKAFPIVGEPLQKHQSLDLGSLLFEGCSNSKPVNAAGRYFNSKVPITRTKSTPFELIQQRETKEVDSKENFSYLESQPHDSCFVEMQAQKVMHVSSAELNYSLPYDSKHQIRNASNVKHHDSSALGVYSYIPLVENPYFSSWPPSGTSSKMSLDLPEKQDGTVFPSSLLPTSSTSLFSYYNSHSSLSLNSPTNISSLLNQESAVLATAPRIDDEIPPPLPVRTPESFIVVEEAGEFSPNVPKSLSSAVKVKIGTSLEWGGTSEPKKFDDSVILRPSKSVKLRSPKSELHQDRSSPPPPLPERTLESFFLADEDCMQAQSIETYSTSYPDTMENSTSSKQTLKTPGKSFTRSKSLKILRNMKKSICNSCPPNKPAESVQSNNSSSFLNFGFANRFSKPKGPRNPPPTWNI
binds: all assays above
